The source of these data is patent publication US20110052677A1 (RESEARCH DEVELOPMENT FOUNDATION, published 2011).

Results are given in words; binding and its absence hold for the method and conditions named. In cells and extracts the contact can be indirect. Some binding calls cover weakened binding; strength is not graded here. Sequences can lack the tags named with a protein.

This test concerns the target T1, vascular urokinase-type plasminogen activator receptor (uPAR) of tEnd1.V^high cells (mouse) (UniProt P35456).
T1 sequence (looked up): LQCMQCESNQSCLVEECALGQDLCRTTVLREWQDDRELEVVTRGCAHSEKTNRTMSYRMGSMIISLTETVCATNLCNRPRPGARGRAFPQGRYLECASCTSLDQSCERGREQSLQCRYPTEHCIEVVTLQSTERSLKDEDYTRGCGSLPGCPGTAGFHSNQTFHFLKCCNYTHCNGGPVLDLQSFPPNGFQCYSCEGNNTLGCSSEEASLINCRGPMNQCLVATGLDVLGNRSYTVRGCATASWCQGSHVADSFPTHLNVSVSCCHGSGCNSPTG
Briefly: pull-down / co-immunoprecipitation with Western blot, tEnd1.V^high cells. (In general: A western blot detects proteins with antibodies after separation by electrophoresis.)

B1: recombinant mouse SRPX2-FLAG (ligand, UniProt Q8R054 26-468, looked up, not shown: small tags and cut ends)
chain: WYAGSGYSPDESYNEVYAEEVPAARARALDYRVPRWCYTLNIQDGEATCYSPRGGNYHSSLGTRCELSCDRGFRLIGRKSVQCLPSRRWSGTAYCRQIRCHTLPFITSGTYTCTNGMLLDSRCDYSCSSGYHLEGDRSRICMEDGRWSGGEPVCVDIDPPKIRCPHSREKMAEPEKLTARVYWDPPLVKDSADGTITRVTLRGPEPGSHFPEGEHVIRYTAYDRAYNRASCKFIVKVQVRRCPILKPPQHGYLTCSSAGDNYGAICEYHCDGGYERQGTPSRVCQSSRQWSGTPPVCTPMKINVNVNSAAGLLDQFYEKQRLLIVSAPDPSNRYYKMQISMLQQSTCGLDLRHVTIIELVGQPPQEVGRIREQQLSAGIIEELRQFQRLTRSYFNMVLIDKQGIDRERYMEPVTPEEIFTFIDDYLLSNEELARRVEQRDLCE
As for B1, the binding entry is reported as “binds”.
